Assay results reported in patent US7544664B2, “Sequences facilitating penetration of a substance of interest” (priority 2003, dated 2009).
In brackets after ≈: the same amount, converted by molar mass.

How the values were obtained:
Assay in all cases: In vitro antifungal activity MIC80 (NCCLS M27A)
Settings in all cases: MIC80, 48 hours, 37° C.; DPV15-AmB and AmB in μg/ml of AmB active product
[1] = tested on: Cryptococcus neoformans (NIH 52D)
[2] = tested on: Aspergillus fumigatus (IP 2001/183.02)
[3] = tested on: Candida albicans (ATCC 90028)

Compound `C[C@@H]1[C@H](O)[C@@H](C)/C=C/C=C/C=C/C=C/C=C/C=C/C=C/[C@H](O[C@@H]2O[C@H](C)[C@@H](O)[C@H](N)[C@@H]2O)C[C@@H]2O[C@](O)(C[C@@H](O)C[C@@H](O)[C@H](O)CC[C@@H](O)C[C@@H](O)CC(=O)O[C@H]1C)C[C@H](O)[C@H]2C(=O)O` [AmB, Amphotericin B] has an MIC [1] of 0.06 µg/mL (≈ 0.0649 µM), an MIC [2] of 1 µg/mL (≈ 1.08 µM) and an MIC [3] of 0.5 µg/mL (≈ 0.541 µM).
